These are yes or no findings as the source states them, for the method shown. In cells and extracts the contact can be indirect. A yes stands for co-enrichment or nearness to the bait. Other partners may have been found. Tags and fused reporters may be left off the sequences shown.
T1: Larix gmelinii MurE without the transit peptide (LgMurE-TP), with the SATD (Larix gmelinii)
T1 sequence: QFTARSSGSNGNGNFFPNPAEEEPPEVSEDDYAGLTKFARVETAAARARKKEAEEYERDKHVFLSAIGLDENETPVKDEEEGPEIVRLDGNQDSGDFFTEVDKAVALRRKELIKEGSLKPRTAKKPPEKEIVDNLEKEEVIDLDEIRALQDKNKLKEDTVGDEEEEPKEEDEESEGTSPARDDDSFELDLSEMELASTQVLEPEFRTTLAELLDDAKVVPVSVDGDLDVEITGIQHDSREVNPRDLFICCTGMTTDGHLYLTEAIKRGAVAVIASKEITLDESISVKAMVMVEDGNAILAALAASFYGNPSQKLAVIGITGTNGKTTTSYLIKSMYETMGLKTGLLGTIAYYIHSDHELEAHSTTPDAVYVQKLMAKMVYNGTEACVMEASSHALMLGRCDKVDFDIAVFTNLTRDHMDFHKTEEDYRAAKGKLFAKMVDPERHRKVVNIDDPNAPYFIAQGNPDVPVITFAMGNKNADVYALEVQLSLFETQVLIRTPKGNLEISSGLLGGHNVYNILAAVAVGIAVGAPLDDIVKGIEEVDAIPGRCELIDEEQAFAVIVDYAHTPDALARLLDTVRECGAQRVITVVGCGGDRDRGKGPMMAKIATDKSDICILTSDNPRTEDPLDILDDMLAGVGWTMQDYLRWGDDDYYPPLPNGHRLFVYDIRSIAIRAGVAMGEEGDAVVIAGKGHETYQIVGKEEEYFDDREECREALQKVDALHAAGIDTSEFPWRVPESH

B1: bifunctional polymyxin resistance protein ArnA (enzyme, UniProt P77398 1-660)
chain: MKTVVFAYHDMGCLGIEALLAAGYEISAIFTHTDNPGEKAFYGSVARLAAERGIPVYAPDNVNHPLWVERIAQLSPDVIFSFYYRHLIYDEILQLAPAGAFNLHGSLLPKYRGRAPLNWVLVNGETETGVTLHRMVKRADAGAIVAQLRIAIAPDDIAITLHHKLCHAARQLLEQTLPAIKHGNILEIAQRENEATCFGRRTPDDSFLEWHKPASVLHNMVRAVADPWPGAFSYVGNQKFTVWSSRVHPHASKAQPGSVISVAPLLIACGDGALEIVTGQAGDGITMQGSQLAQTLGLVQGSRLNSQPACTARRRTRVLILGVNGFIGNHLTERLLREDHYEVYGLDIGSDAISRFLNHPHFHFVEGDISIHSEWIEYHVKKCDVVLPLVAIATPIEYTRNPLRVFELDFEENLRIIRYCVKYRKRIIFPSTSEVYGMCSDKYFDEDHSNLIVGPVNKPRWIYSVSKQLLDRVIWAYGEKEGLQFTLFRPFNWMGPRLDNLNAARIGSSRAITQLILNLVEGSPIKLIDGGKQKRCFTDIRDGIEALYRIIENAGNRCDGEIINIGNPENEASIEELGEMLLASFEKHPLRHHFPPFAGFRVVESSSYYGKGYQDVEHRKPSIRNAHRCLDWEPKIDMQETIDETLDFFLRTVDLTDKPS
B2: glucosamine-6-phosphate synthase GlmS (enzyme, UniProt P17169 1-609)
chain: MCGIVGAIAQRDVAEILLEGLRRLEYRGYDSAGLAVVDAEGHMTRLRRLGKVQMLAQAAEEHPLHGGTGIAHTRWATHGEPSEVNAHPHVSEHIVVVHNGIIENHEPLREELKARGYTFVSETDTEVIAHLVNWELKQGGTLREAVLRAIPQLRGAYGTVIMDSRHPDTLLAARSGSPLVIGLGMGENFIASDQLALLPVTRRFIFLEEGDIAEITRRSVNIFDKTGAEVKRQDIESNLQYDAGDKGIYRHYMQKEIYEQPNAIKNTLTGRISHGQVDLSELGPNADELLSKVEHIQILACGTSYNSGMVSRYWFESLAGIPCDVEIASEFRYRKSAVRRNSLMITLSQSGETADTLAGLRLSKELGYLGSLAICNVPGSSLVRESDLALMTNAGTEIGVASTKAFTTQLTVLLMLVAKLSRLKGLDASIEHDIVHGLQALPSRIEQMLSQDKRIEALAEDFSDKHHALFLGRGDQYPIALEGALKLKEISYIHAEAYAAGELKHGPLALIDADMPVIVVAPNNELLEKLKSNIEEVRARGGQLYVFADQDAGFVSSDNMHIIEMPHVEEVIAPIFYTVPLQLLAYHVALIKGTDVDQPRNLAKSVTVE

Target: T1, Larix gmelinii MurE without the transit peptide (LgMurE-TP), with the SATD (Larix gmelinii)
Experiment: affinity purification with mass spectrometry; His-tagged MurE with SATD expressed in the heterologous host (especially E. coli) and purified on Ni resin; copurifying bands cut from SDS-PAGE gels and identified by LC-MS

| Binder | binding |
| --- | --- |
| B1 | binds |
| B2 | binds |

Reference: publication PMC12681378, “Transcriptomic and enzymological evidence for plastid peptidoglycan synthesis in the gymnosperm Picea abies” (The Plant Journal, 2025)
